Laboratory results: PubChem BioAssay AID602196 (INSERM, 2012)
Assay: 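Modifiers of cisplatin sensitivity in A549 cells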. Cells: human A549 lung cancer cells. Reagent: siRNA pair against human genes. Timing: 48 h transfection before cisplatin; time from cisplatin to read-out not stated. Conditions: cisplatin at a dose killing half of control-siRNA cells; exact dose and duration not given. Read-out: 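Shift in cisplatin death relative to control siRNA, from -50 (all cells die) to +50 (no cells die); siRNAs harmful on their own scored 0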. Reading the numbers: two-siRNA summed score (-2 to +2): higher = both siRNAs protect from cisplatin killing; -2 means both sensitise; mean protection from cisplatin (shift in death): higher = protection from cisplatin killing. Hit rule: 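Each siRNA scores 0 if harmful alone by LDH or WST-1, otherwise +1 if it reduces and -1 if it increases cisplatin killing; a gene is active when both siRNAs agree (sum +2 or -2)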. Calls: active = both siRNAs shift cisplatin killing the same way; inactive = no consistent shift, or siRNA harmful alone.
In all, the deposit lists about 23,000 reagents; shown is an unselected part. Of all reagents, 455 (2%) are marked active. 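Active includes both protection and sensitisation; some change values fall well beyond the stated -50 to +50 range.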 Further read-outs or replicates are left out here. The record does not give: the amount of reagent.

target	two-siRNA summed score (-2 to +2)	mean protection from cisplatin (shift in death) (%)	outcome
G6PC1 (GeneID 2538)	0	8	inactive
RPL14 (GeneID 9045)	1	13	inactive
ALG2 (GeneID 85365)	1	15.5	inactive
SLC2A8 (GeneID 29988)	0	0.3	inactive
LINC01931 (GeneID 150596)	0	3.1	inactive
LOC401149	0	-2	inactive
COMMD3 (GeneID 23412)	1	17.7	inactive
GPR176 (GeneID 11245)	0	13.6	inactive
ZNF317 (GeneID 57693)	0	4.3	inactive
KCNF1 (GeneID 3754)	0	5.6	inactive
OR13C3 (GeneID 138803)	0	-7.2	inactive
LIN9 (GeneID 286826)	0	-4.4	inactive
LOC392550	1	23.3	inactive
CLIP3 (GeneID 25999)	0	-1.7	inactive
SECTM1 (GeneID 6398)	0	-1.6	inactive
NEK1 (GeneID 4750)	0	6.8	inactive
NRTN (GeneID 4902)	0	5.4	inactive
NOX3 (GeneID 50508)	0	-1.9	inactive
ZFP91 (GeneID 80829)	0	7.6	inactive
MACROD2 (GeneID 140733)	0	1.8	inactive
HMOX1 (GeneID 3162)	0	15.6	inactive
GBX2 (GeneID 2637)	0	2.1	inactive
CC2D1A (GeneID 54862)	0	5.7	inactive
SIGLEC17P (GeneID 284367)	0	10.7	inactive
SETX (GeneID 23064)	1	14.3	inactive

4 entries already listed, arranged by “two-siRNA summed score (-2 to +2)”, lowest first.
target	two-siRNA summed score (-2 to +2)	mean protection from cisplatin (shift in death) (%)	outcome
OR13C3 (GeneID 138803)	0	-7.2	inactive
LIN9 (GeneID 286826)	0	-4.4	inactive
CLIP3 (GeneID 25999)	0	-1.7	inactive
LOC392550	1	23.3	inactive

The list goes on:
target	two-siRNA summed score (-2 to +2)	mean protection from cisplatin (shift in death) (%)	outcome
LOC441864	0	19.6	inactive
CLSTN3 (GeneID 9746)	0	-0.9	inactive
LOC116068	0	14.2	inactive
LOC401126	0	-1	inactive
IFNGR2 (GeneID 3460)	0	-6.9	inactive
COA4 (GeneID 51287)	0	7.5	inactive
BLTP3A (GeneID 54887)	0	-2.2	inactive
TMEM132E-DT (GeneID 400591)	0	0.2	inactive
FAM186B (GeneID 84070)	0	0.3	inactive
LYLDT1 (GeneID 121273)	0	-2.3	inactive
TM9SF4 (GeneID 9777)	1	6.5	inactive
GLCCI1 (GeneID 113263)	1	9.8	inactive
TLR4 (GeneID 7099)	-1	-18.5	inactive
HSP90AB1 (GeneID 3326)	0	-5.8	inactive
LOC388199	1	20.7	inactive
VPS51P8 (GeneID 441320)	0	8.9	inactive
LOC401471	0	8.7	inactive
THRB (GeneID 7068)	0	12.5	inactive
OR4F15 (GeneID 390649)	0	1.5	inactive
TM6SF2 (GeneID 53345)	0	10	inactive
ZNF786 (GeneID 136051)	2	20.2	active
DNAI1 (GeneID 27019)	0	2.2	inactive
LOC285711	0	3.4	inactive
DNAJB12 (GeneID 54788)	0	2.7	inactive
STX5 (GeneID 6811)	0	-3.1	inactive
LOC388713	1	6.9	inactive
SYT13 (GeneID 57586)	0	4.9	inactive
GEM (GeneID 2669)	0	0	inactive
LOC387841	0	30.5	inactive
LOC440309	1	10.1	inactive
PDE4A (GeneID 5141)	0	12.8	inactive
NGRNP3 (GeneID 402634)	0	8.7	inactive
